Results deposited as PubChem BioAssay AID1224830 (NIAID, 2016)
Assay: 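Regulators of TLR4 signalling towards TNF-alpha in macrophage-like cells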 (primary screen). Cells: human THP-1 monocytic leukaemia cells, TNF dual-luciferase reporter clone, PMA-differentiated to macrophage-like cells. Reagents: siRNA pool against human genes, 50 nM. Duration: LPS for 4 h, given about 3 days after siRNA transfection. Conditions: bacterial LPS (TLR4 ligand), 10 ng/ml. Measurement: 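TNF firefly reporter luminescence divided by renilla, normalised to the plate median, then turned into a robust z-score for each replicate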. Direction: TNF reporter robust z-score: higher = stronger TNF reporter response to LPS. Hit rule: 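a well is active when its z-score exceeds 2.8 or falls below -1.5; control wells carry no call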.
Here is one part, drawn at random, of about 18,000 reagents tested. Of all reagents, about 2,900 (16%) were called active. 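Calls are made per well; low scores hint the gene aids the LPS response, high scores that it dampens it.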 Repeated entries: four replicate wells of each siRNA pool.

The first 11 entries, ahead of the listing:
| gene symbol | TNF reporter robust z-score | activity call |
| --- | --- | --- |
| FBXO36 | -0.02 | inactive |
| FBXO36 | -0.66 | inactive |
| FBXO36 | -1.55 | active |
| FBXO36 | -1.31 | inactive |
| RNF123 | -0.68 | inactive |
| RNF123 | -0.8 | inactive |
| RNF123 | 1.4 | inactive |
| ASB15 | 1.61 | inactive |
| ASB15 | 0.44 | inactive |
| ASB15 | -0.69 | inactive |
| ASB15 | 0.08 | inactive |

Main list, from the first entry:
| gene symbol | TNF reporter robust z-score | activity call |
| --- | --- | --- |
| FBXO36 | -0.02 | inactive |
| FBXO36 | -0.66 | inactive |
| FBXO36 | -1.55 | active |
| FBXO36 | -1.31 | inactive |
| RNF123 | -0.68 | inactive |
| RNF123 | -0.8 | inactive |
| RNF123 | 1.4 | inactive |
| ASB15 | 1.61 | inactive |
| ASB15 | 0.44 | inactive |
| ASB15 | -0.69 | inactive |
| ASB15 | 0.08 | inactive |
| TRPV5 | 0.93 | inactive |
| TRPV5 | -0.92 | inactive |
| TRPV5 | -1.35 | inactive |
| TRPV5 | -0.51 | inactive |
| OBP2A | 0.42 | inactive |
| OBP2A | 0.1 | inactive |
| OBP2A | 0.92 | inactive |
| OBP2A | 0.17 | inactive |
| CHST4 | -0.88 | inactive |
| CHST4 | 1.12 | inactive |
| CHST4 | 0.36 | inactive |
| CHST4 | -0.07 | inactive |
| C6orf15 | 1.93 | inactive |
| C6orf15 | 0.78 | inactive |
| C6orf15 | 1.16 | inactive |
| C6orf15 | 1.9 | inactive |
| CEP72 | 0.07 | inactive |
| CEP72 | 0.13 | inactive |
| CEP72 | 0.24 | inactive |
| CEP72 | -0.09 | inactive |
| SLC25A31 | -0.06 | inactive |
| SLC25A31 | 0.15 | inactive |
| SLC25A31 | -0.87 | inactive |
| SLC25A31 | 0.29 | inactive |
| DCAF4 | -0.42 | inactive |
| DCAF4 | -1.39 | inactive |
| DCAF4 | 0.35 | inactive |
| DCAF4 | -0.05 | inactive |
| NPY5R | -0.25 | inactive |
| NPY5R | -0.71 | inactive |
| NPY5R | -0.15 | inactive |
| NPY5R | -0.31 | inactive |
| FBXO3 | -1.41 | inactive |
| FBXO3 | 2.46 | inactive |
| FBXO3 | -1.27 | inactive |
| FBXO3 | 0.52 | inactive |
| FBXL21P | -0.83 | inactive |
| FBXL21P | -0.07 | inactive |
| FBXL21P | -0.73 | inactive |
| ADAM22 | 1.4 | inactive |
| ADAM22 | 0.65 | inactive |
| ADAM22 | 2.16 | inactive |
| ADAM22 | 2.76 | inactive |
| MKX | 2.6 | inactive |
| MKX | 3.99 | active |
| MKX | 2.77 | inactive |
| MKX | 4.36 | active |
| SIGLEC9 | -0.83 | inactive |
| SIGLEC9 | -0.6 | inactive |
| SIGLEC9 | -0.92 | inactive |
| SIGLEC9 | -0.79 | inactive |
| EVI5 | -0.89 | inactive |
| EVI5 | -0.9 | inactive |
| EVI5 | -0.72 | inactive |
| EVI5 | 0.23 | inactive |
| AHSG | 0.04 | inactive |
| AHSG | 0.84 | inactive |
| AHSG | 0.14 | inactive |
| AHSG | 2.15 | inactive |
| GIMAP2 | 0.52 | inactive |
| GIMAP2 | 0.55 | inactive |
| GIMAP2 | -0.89 | inactive |
| GIMAP2 | 0.26 | inactive |
| WDR53 | 3.12 | active |
| WDR53 | 2.82 | active |
| WDR53 | 2.41 | inactive |
| WDR53 | 1.69 | inactive |
| PDIK1L | -0.38 | inactive |
| PDIK1L | 0.52 | inactive |
| PDIK1L | -0.16 | inactive |
| PDIK1L | 0.26 | inactive |
| S100A4 | 0.37 | inactive |
| S100A4 | 1.18 | inactive |
| S100A4 | 0.8 | inactive |
| S100A4 | 0.31 | inactive |
| CTNNA2 | 0.36 | inactive |
| CTNNA2 | 2.64 | inactive |
| CTNNA2 | 0.94 | inactive |
| CTNNA2 | 1.69 | inactive |
| MMP13 | 1.19 | inactive |
| MMP13 | 0.48 | inactive |
| MMP13 | 2.31 | inactive |
| MMP13 | 1 | inactive |
| CENPB | -0.02 | inactive |
| CENPB | 0.36 | inactive |
| CENPB | -0.33 | inactive |
| CENPB | 0.07 | inactive |
| CISD2 | 0.56 | inactive |
| CISD2 | 0.6 | inactive |
| CISD2 | -0.17 | inactive |
| CISD2 | 0.19 | inactive |
| KRTAP13-2 | -0.17 | inactive |
| KRTAP13-2 | 0.46 | inactive |
| KRTAP13-2 | 1.74 | inactive |
| KRTAP13-2 | 1.59 | inactive |
| UGT2B17 | 0.5 | inactive |
| UGT2B17 | 1.48 | inactive |
| UGT2B17 | 0.88 | inactive |
| UGT2B17 | 2.09 | inactive |
